# Measured data: PubChem BioAssay AID1159578 (Peter MacCallum Cancer Centre, 2015)
# Purpose: 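siRNA pools altering how lymphatic endothelial cells close a scratch wound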 (primary screen)
# System: human lymphatic endothelial cells
# Knock-down reagent: siRNA pool against human genes, 40 nM
# Timing: 48 h after transfection
# Measured: 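High-content imaging of dye-stained cells in a scratch assay measures filled wound area and nuclei per well; duplicate means given as ratio to mock and robust z-score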
# Reading the numbers: migration robust z-score: higher = faster migration into the scratch; nuclei per well: higher = more cells in the well
# Active means: 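Pools averaging fewer than 3300 nuclei are never called; remaining pools count as changed when migration robust z lies outside -2 to 2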
# Meaning of the calls: active = migration changed; inactive = no migration change, or too few cells
# This is a random part of about 18,000 deposited reagents. About 1,030 of them (5.7%) count as active. 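Inactive calls also include pools with fewer than 3300 nuclei, whose migration was not assessed.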 Raw values vary from plate to plate and are shown uncorrected. A number with no mark means an inactive call. Further read-outs or replicates are left out here.
The opening 7 entries, to show the layout:
target gene,migration robust z-score,migration class with cell-count check,"nuclei per well, duplicate mean"
ST20-AS1 (ST20 antisense RNA 1),-0.14,migration z between -2 and 2; enough cells,6286
C3orf38 (chromosome 3 open reading frame 38),2.61 (active),migration z above 2; enough cells,6118
HSD17B2 (hydroxysteroid 17-beta dehydrogenase 2),0.02,migration z between -2 and 2; enough cells,5868
IFNGR2 (interferon gamma receptor 2),0.16,migration z between -2 and 2; enough cells,5939
OCLM (retired record),1.77,migration z between -2 and 2; enough cells,7273
GHSR (growth hormone secretagogue receptor),-1.48,migration z between -2 and 2; enough cells,4267
CDC73 (cell division cycle 73),-0.28,migration z between -2 and 2; enough cells,5363

Main list, from the first entry:
target gene,migration robust z-score,migration class with cell-count check,"nuclei per well, duplicate mean"
ST20-AS1 (ST20 antisense RNA 1),-0.14,migration z between -2 and 2; enough cells,6286
C3orf38 (chromosome 3 open reading frame 38),2.61 (active),migration z above 2; enough cells,6118
HSD17B2 (hydroxysteroid 17-beta dehydrogenase 2),0.02,migration z between -2 and 2; enough cells,5868
IFNGR2 (interferon gamma receptor 2),0.16,migration z between -2 and 2; enough cells,5939
OCLM (retired record),1.77,migration z between -2 and 2; enough cells,7273
GHSR (growth hormone secretagogue receptor),-1.48,migration z between -2 and 2; enough cells,4267
CDC73 (cell division cycle 73),-0.28,migration z between -2 and 2; enough cells,5363
SRA1 (steroid receptor RNA activator 1),-1.65,migration z between -2 and 2; enough cells,4140
MAD1L1 (mitotic arrest deficient 1 like 1),1.15,migration z between -2 and 2; enough cells,6213
TXNL4B (thioredoxin like 4B),0.54,migration z between -2 and 2; enough cells,6266
BPIFB6 (BPI fold containing family B member 6),-0.24,migration z between -2 and 2; enough cells,6320
PPP4R3A (protein phosphatase 4 regulatory subunit 3A),-1.1,migration z between -2 and 2; enough cells,6754
FUT1 (fucosyltransferase 1 (H blood group)),0.78,migration z between -2 and 2; enough cells,5972
KLF3 (KLF transcription factor 3),0.36,migration z between -2 and 2; enough cells,4592
CTAG2 (cancer/testis antigen 2),0.57,migration z between -2 and 2; enough cells,5378
SEMA4B (semaphorin 4B),-3.07,under 3300 nuclei; migration not judged,2596
CASQ2 (calsequestrin 2),-0.05,migration z between -2 and 2; enough cells,6136
SPATA2 (spermatogenesis associated 2),2.22 (active),migration z above 2; enough cells,6616
TMC5 (transmembrane channel like 5),-0.26,migration z between -2 and 2; enough cells,5352
HTR1F (5-hydroxytryptamine receptor 1F),0.03,migration z between -2 and 2; enough cells,6260
CDK5R2 (cyclin dependent kinase 5 regulatory subunit 2),-5.17,under 3300 nuclei; migration not judged,2324
CRIM1 (cysteine rich transmembrane BMP regulator 1),-3.92,under 3300 nuclei; migration not judged,2766
ISCA1P1 (iron-sulfur cluster assembly 1 pseudogene 1),-0.15,migration z between -2 and 2; enough cells,6917
UBL4B (ubiquitin like 4B),0.38,migration z between -2 and 2; enough cells,6406
CRYBB2 (crystallin beta B2),1.41,migration z between -2 and 2; enough cells,5814
F13B (coagulation factor XIII B chain),0.39,migration z between -2 and 2; enough cells,5492
TPD52L1 (TPD52 like 1),3.25 (active),migration z above 2; enough cells,6982
IL17RA (interleukin 17 receptor A),-1.68,migration z between -2 and 2; enough cells,4672
SYNE1 (spectrin repeat containing nuclear envelope protein 1),0.6,migration z between -2 and 2; enough cells,6370
CRNKL1 (crooked neck pre-mRNA splicing factor 1),-0.31,migration z between -2 and 2; enough cells,5158
NTS (neurotensin),0.64,migration z between -2 and 2; enough cells,7401
KIFC2 (kinesin family member C2),0.73,migration z between -2 and 2; enough cells,5117
PCDH12 (protocadherin 12),0.04,migration z between -2 and 2; enough cells,5202
DLK2 (delta like non-canonical Notch ligand 2),-0.4,migration z between -2 and 2; enough cells,6328
TRIM22 (tripartite motif containing 22),-0.13,migration z between -2 and 2; enough cells,5492
SLAMF1 (signaling lymphocytic activation molecule family member 1),0.96,migration z between -2 and 2; enough cells,5584
MTHFSD (methenyltetrahydrofolate synthetase domain containing),0.49,migration z between -2 and 2; enough cells,5503
CST11 (cystatin 11),-0.08,migration z between -2 and 2; enough cells,6328
CRTAC1 (cartilage acidic protein 1),-0.62,migration z between -2 and 2; enough cells,6132
ZBED3 (zinc finger BED-type containing 3),-1.14,migration z between -2 and 2; enough cells,5496
PEX12 (peroxisomal biogenesis factor 12),0.48,migration z between -2 and 2; enough cells,5350
CD33 (CD33 molecule),-0.18,migration z between -2 and 2; enough cells,6206
NRIP2 (nuclear receptor interacting protein 2),-0.8,migration z between -2 and 2; enough cells,4192
RNF6 (ring finger protein 6),0.29,migration z between -2 and 2; enough cells,5020
FGFR3 (fibroblast growth factor receptor 3),-2.67 (active),migration z below -2; enough cells,3919
HTR2B (5-hydroxytryptamine receptor 2B),0.57,migration z between -2 and 2; enough cells,5612
STAT2 (signal transducer and activator of transcription 2),-0.26,migration z between -2 and 2; enough cells,5362
DIO2 (iodothyronine deiodinase 2),-0.78,migration z between -2 and 2; enough cells,6604
ZG16B (zymogen granule protein 16B),-0.78,migration z between -2 and 2; enough cells,6429
UBQLN3 (ubiquilin 3),0.68,migration z between -2 and 2; enough cells,6072
SRRD (SRR1 domain containing),0.26,migration z between -2 and 2; enough cells,6048
NKX2-5 (NK2 homeobox 5),-0.8,migration z between -2 and 2; enough cells,5912
TIMM13 (translocase of inner mitochondrial membrane 13),-0.5,migration z between -2 and 2; enough cells,4560
DMTN (dematin actin binding protein),0.57,migration z between -2 and 2; enough cells,6839
OR2T34 (olfactory receptor family 2 subfamily T member 34),-1.27,migration z between -2 and 2; enough cells,5056
LIFR (LIF receptor subunit alpha),1.14,migration z between -2 and 2; enough cells,6663
"CKMT1B (creatine kinase, mitochondrial 1B)",0.46,migration z between -2 and 2; enough cells,6316
